Data from doi:10.1101/2020.12.29.424679 (bioRxiv, 2020).
No constants are given. Whether binding was seen depends on the method and setting. In cells and extracts the contact can be indirect. Some results given as binding are weak or reduced against the parent protein; the word gives no strength. For some assays here: Sequences can lack the tags named with a protein.

Amino acid sequences for entries named in this document (tags omitted).
UniProt P97929: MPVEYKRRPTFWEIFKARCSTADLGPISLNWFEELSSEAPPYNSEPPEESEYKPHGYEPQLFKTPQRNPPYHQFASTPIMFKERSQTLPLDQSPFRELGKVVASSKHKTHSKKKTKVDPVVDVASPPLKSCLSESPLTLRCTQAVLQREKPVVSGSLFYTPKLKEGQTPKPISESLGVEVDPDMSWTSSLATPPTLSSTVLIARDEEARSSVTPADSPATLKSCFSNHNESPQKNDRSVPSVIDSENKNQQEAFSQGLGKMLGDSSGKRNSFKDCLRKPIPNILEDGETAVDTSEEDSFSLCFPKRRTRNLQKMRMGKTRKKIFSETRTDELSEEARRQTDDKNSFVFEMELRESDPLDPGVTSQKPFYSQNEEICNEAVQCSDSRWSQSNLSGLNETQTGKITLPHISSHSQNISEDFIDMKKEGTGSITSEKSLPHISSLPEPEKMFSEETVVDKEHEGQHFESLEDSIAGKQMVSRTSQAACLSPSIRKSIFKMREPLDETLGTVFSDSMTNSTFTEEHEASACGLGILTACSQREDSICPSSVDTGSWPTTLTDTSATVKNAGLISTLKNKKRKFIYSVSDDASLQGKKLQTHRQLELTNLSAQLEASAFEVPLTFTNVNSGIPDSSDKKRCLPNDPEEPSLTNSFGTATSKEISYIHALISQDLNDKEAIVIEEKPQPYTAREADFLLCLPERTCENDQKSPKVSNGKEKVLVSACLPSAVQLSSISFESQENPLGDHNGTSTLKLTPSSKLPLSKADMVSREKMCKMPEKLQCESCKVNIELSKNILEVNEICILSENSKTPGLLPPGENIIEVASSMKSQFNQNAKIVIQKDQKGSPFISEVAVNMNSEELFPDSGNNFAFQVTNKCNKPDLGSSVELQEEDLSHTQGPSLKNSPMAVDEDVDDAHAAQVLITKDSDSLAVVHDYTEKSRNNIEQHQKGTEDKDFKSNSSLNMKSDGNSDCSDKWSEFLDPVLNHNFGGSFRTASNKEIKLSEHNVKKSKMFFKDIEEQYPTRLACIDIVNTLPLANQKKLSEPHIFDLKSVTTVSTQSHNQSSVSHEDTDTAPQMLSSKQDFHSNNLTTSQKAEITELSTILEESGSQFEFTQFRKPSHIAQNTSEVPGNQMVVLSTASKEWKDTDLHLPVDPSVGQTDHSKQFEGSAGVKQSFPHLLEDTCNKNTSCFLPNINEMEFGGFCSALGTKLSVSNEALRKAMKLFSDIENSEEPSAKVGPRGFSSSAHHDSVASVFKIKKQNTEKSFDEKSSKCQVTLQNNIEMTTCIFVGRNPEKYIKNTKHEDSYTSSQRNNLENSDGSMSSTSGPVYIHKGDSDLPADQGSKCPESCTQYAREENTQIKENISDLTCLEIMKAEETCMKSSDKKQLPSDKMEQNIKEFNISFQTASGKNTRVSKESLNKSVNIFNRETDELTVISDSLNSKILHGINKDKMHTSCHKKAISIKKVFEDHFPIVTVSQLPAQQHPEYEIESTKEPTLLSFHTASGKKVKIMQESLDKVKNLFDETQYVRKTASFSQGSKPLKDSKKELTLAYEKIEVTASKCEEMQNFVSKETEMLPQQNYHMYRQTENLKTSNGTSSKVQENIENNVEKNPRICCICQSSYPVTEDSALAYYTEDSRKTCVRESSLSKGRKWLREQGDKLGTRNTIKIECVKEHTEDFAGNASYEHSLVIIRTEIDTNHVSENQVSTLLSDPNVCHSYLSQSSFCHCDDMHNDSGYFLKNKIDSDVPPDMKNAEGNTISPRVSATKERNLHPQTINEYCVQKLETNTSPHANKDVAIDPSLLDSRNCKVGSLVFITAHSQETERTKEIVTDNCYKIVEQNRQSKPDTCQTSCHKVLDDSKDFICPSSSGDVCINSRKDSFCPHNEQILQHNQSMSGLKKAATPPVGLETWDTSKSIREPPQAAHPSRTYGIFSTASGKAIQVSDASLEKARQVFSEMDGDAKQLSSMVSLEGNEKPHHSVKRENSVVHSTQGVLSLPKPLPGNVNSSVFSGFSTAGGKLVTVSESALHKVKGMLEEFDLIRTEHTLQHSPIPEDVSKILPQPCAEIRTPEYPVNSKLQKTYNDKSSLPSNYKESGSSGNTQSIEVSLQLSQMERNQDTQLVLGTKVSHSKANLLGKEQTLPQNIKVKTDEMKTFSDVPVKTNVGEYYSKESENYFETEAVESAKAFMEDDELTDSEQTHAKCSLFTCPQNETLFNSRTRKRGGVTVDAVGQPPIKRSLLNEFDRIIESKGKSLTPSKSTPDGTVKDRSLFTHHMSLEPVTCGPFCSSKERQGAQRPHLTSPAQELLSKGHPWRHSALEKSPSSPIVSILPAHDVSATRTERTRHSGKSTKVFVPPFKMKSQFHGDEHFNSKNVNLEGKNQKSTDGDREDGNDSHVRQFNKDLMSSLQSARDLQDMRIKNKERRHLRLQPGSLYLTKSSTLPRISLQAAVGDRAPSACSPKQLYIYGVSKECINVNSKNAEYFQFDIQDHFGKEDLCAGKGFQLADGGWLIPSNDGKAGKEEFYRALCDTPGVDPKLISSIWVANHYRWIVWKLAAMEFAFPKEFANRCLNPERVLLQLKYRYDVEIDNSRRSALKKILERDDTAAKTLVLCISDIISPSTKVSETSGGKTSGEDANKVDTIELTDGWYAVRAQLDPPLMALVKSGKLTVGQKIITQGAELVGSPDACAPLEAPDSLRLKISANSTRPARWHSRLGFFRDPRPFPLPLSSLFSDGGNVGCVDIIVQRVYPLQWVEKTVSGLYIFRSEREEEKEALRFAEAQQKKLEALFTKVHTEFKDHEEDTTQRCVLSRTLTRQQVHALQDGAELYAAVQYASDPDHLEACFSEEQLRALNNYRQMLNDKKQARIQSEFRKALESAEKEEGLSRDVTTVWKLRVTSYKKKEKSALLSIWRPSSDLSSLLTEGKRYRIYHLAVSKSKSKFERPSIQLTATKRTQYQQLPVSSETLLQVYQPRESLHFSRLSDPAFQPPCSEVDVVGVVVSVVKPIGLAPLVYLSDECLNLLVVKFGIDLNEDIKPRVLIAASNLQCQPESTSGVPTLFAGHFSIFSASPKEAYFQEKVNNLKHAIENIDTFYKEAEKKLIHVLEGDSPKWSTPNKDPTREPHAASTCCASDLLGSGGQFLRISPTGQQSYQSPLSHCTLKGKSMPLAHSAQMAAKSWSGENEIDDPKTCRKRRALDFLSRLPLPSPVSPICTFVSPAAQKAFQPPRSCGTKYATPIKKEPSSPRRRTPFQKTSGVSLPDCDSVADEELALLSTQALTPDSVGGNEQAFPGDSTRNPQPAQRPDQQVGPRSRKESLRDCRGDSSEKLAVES

T1: Mouse HSF2BP-GFP (mouse (knock-in allele in mES cells)) (UniProt Q9D4G2)
T1 sequence: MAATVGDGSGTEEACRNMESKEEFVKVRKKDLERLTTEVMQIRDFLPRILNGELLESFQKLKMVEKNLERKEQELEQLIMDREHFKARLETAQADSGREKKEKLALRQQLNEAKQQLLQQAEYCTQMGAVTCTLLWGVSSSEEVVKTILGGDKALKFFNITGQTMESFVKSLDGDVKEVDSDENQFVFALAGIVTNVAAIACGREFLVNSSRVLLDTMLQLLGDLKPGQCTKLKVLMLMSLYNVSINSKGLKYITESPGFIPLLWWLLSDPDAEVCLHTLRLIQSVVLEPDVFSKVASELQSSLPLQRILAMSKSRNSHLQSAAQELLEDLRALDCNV

B1: Mouse HSF2BP, natively expressed in ES cells (protein, UniProt Q9D4G2 1-338)
chain: T1 sequence

Tests used:
[1] = biological target: T1, Mouse HSF2BP-GFP (mouse (knock-in allele in mES cells)); assay: co-IP
[2] = biological target: Mouse full-length BRCA2-GFP (mouse (knock-in allele in mES cells)) (UniProt P97929); assay: co-IP

| Molecule | binding [1] | binding [2] |
| --- | --- | --- |
| Mouse BRCA2 (Brca2 wt/wt) (from UniProt P97929 1-3329) | binds | – |
| B1 | – | binds |
